Measurements reported in PubChem BioAssay AID1508597 (Cure First, 2020).
The whole screen tested about 2,100 reagents; below is a random part of them. 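Calls flag viability under 80% in either arm, not effects specific to rucaparib; the reference for percent is not stated.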 The record does not give: the 100% reference.

Test: 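Genes whose silencing sensitises or protects ovarian cancer cells against rucaparib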 (primary screen)
Cell system: human ovarian carcinoma lines grown from tumours: OCI-P5x (papillary serous) and OCI-C5x (clear cell)
Reagents: siRNA pool against human genes, 1.25 pmol siRNA per well
Timing: 72 h or 96 h, depending on the cell culture
Conditions: rucaparib 20 µM (about IC30) or vehicle, present until read-out
Read-out: 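Luminescent ATP-based viability assay read 72 or 96 h after transfection, depending on culture, given as normalised percent viability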
Scale: viability, normalised: higher = more viable cells remaining
Call rule: 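a well counts as a hit if its normalised viability is under 80 percent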
Calls: active = viability under 80%; inactive = viability 80% or more

gene | rucaparib or vehicle | cell line | technical replicate | viability, normalised (%) | activity call
TJP2 (tight junction protein 2) | Rucaparib | OCI-C5x (clear cell) | 1 | 54.4 | active
TJP2 (tight junction protein 2) | Rucaparib | OCI-C5x (clear cell) | 2 | 37.2 | active
TJP2 (tight junction protein 2) | Rucaparib | OCI-C5x (clear cell) | 3 | 47.9 | active
TJP2 (tight junction protein 2) | Rucaparib | OCI-P5x (serous) | 1 | 126 | inactive
TJP2 (tight junction protein 2) | Rucaparib | OCI-P5x (serous) | 2 | 100 | inactive
TJP2 (tight junction protein 2) | Rucaparib | OCI-P5x (serous) | 3 | 90.6 | inactive
TJP2 (tight junction protein 2) | Vehicle | OCI-C5x (clear cell) | 1 | 67.9 | active
TJP2 (tight junction protein 2) | Vehicle | OCI-C5x (clear cell) | 2 | 68.2 | active
TJP2 (tight junction protein 2) | Vehicle | OCI-C5x (clear cell) | 3 | 49.2 | active
TJP2 (tight junction protein 2) | Vehicle | OCI-P5x (serous) | 1 | 74 | active
TJP2 (tight junction protein 2) | Vehicle | OCI-P5x (serous) | 2 | 70.9 | active
TJP2 (tight junction protein 2) | Vehicle | OCI-P5x (serous) | 3 | 85.4 | inactive
INSR (insulin receptor) | Rucaparib | OCI-C5x (clear cell) | 1 | 50.4 | active
INSR (insulin receptor) | Rucaparib | OCI-C5x (clear cell) | 2 | 70.5 | active
INSR (insulin receptor) | Rucaparib | OCI-C5x (clear cell) | 3 | 50.3 | active
INSR (insulin receptor) | Rucaparib | OCI-P5x (serous) | 1 | 105 | inactive
INSR (insulin receptor) | Rucaparib | OCI-P5x (serous) | 2 | 102 | inactive
INSR (insulin receptor) | Rucaparib | OCI-P5x (serous) | 3 | 107 | inactive
INSR (insulin receptor) | Vehicle | OCI-C5x (clear cell) | 1 | 82.6 | inactive
INSR (insulin receptor) | Vehicle | OCI-C5x (clear cell) | 2 | 74.3 | active
INSR (insulin receptor) | Vehicle | OCI-C5x (clear cell) | 3 | 66.2 | active
INSR (insulin receptor) | Vehicle | OCI-P5x (serous) | 1 | 99.2 | inactive
INSR (insulin receptor) | Vehicle | OCI-P5x (serous) | 2 | 89.2 | inactive
INSR (insulin receptor) | Vehicle | OCI-P5x (serous) | 3 | 95.9 | inactive

4 of these entries in another layout:
INSR (insulin receptor), rucaparib or vehicle Vehicle, cell line OCI-C5x (clear cell), technical replicate 1
- viability, normalised (%): 82.6
- activity call: inactive

INSR (insulin receptor), rucaparib or vehicle Vehicle, cell line OCI-C5x (clear cell), technical replicate 2
- viability, normalised (%): 74.3
- activity call: active

INSR (insulin receptor), rucaparib or vehicle Vehicle, cell line OCI-C5x (clear cell), technical replicate 3
- viability, normalised (%): 66.2
- activity call: active

INSR (insulin receptor), rucaparib or vehicle Vehicle, cell line OCI-P5x (serous), technical replicate 1
- viability, normalised (%): 99.2
- activity call: inactive

Continued.
gene | rucaparib or vehicle | cell line | technical replicate | viability, normalised (%) | activity call
JADE1 (jade family PHD finger 1) | Rucaparib | OCI-C5x (clear cell) | 1 | 60.9 | active
JADE1 (jade family PHD finger 1) | Rucaparib | OCI-C5x (clear cell) | 2 | 57.4 | active
JADE1 (jade family PHD finger 1) | Rucaparib | OCI-C5x (clear cell) | 3 | 45.7 | active
JADE1 (jade family PHD finger 1) | Rucaparib | OCI-P5x (serous) | 1 | 51.6 | active
JADE1 (jade family PHD finger 1) | Rucaparib | OCI-P5x (serous) | 2 | 57.6 | active
JADE1 (jade family PHD finger 1) | Rucaparib | OCI-P5x (serous) | 3 | 60 | active
JADE1 (jade family PHD finger 1) | Vehicle | OCI-C5x (clear cell) | 1 | 47.3 | active
JADE1 (jade family PHD finger 1) | Vehicle | OCI-C5x (clear cell) | 2 | 54.7 | active
JADE1 (jade family PHD finger 1) | Vehicle | OCI-C5x (clear cell) | 3 | 39.6 | active
JADE1 (jade family PHD finger 1) | Vehicle | OCI-P5x (serous) | 1 | 61.8 | active
JADE1 (jade family PHD finger 1) | Vehicle | OCI-P5x (serous) | 2 | 59.4 | active
JADE1 (jade family PHD finger 1) | Vehicle | OCI-P5x (serous) | 3 | 85 | inactive
MAP3K8 (mitogen-activated protein kinase kinase kinase 8) | Rucaparib | OCI-C5x (clear cell) | 1 | 60.8 | active
MAP3K8 (mitogen-activated protein kinase kinase kinase 8) | Rucaparib | OCI-C5x (clear cell) | 2 | 57 | active
MAP3K8 (mitogen-activated protein kinase kinase kinase 8) | Rucaparib | OCI-C5x (clear cell) | 3 | 69.1 | active
MAP3K8 (mitogen-activated protein kinase kinase kinase 8) | Rucaparib | OCI-P5x (serous) | 1 | 102 | inactive
MAP3K8 (mitogen-activated protein kinase kinase kinase 8) | Rucaparib | OCI-P5x (serous) | 2 | 88.7 | inactive
MAP3K8 (mitogen-activated protein kinase kinase kinase 8) | Rucaparib | OCI-P5x (serous) | 3 | 86.1 | inactive
MAP3K8 (mitogen-activated protein kinase kinase kinase 8) | Vehicle | OCI-C5x (clear cell) | 1 | 55.5 | active
MAP3K8 (mitogen-activated protein kinase kinase kinase 8) | Vehicle | OCI-C5x (clear cell) | 2 | 50.5 | active
MAP3K8 (mitogen-activated protein kinase kinase kinase 8) | Vehicle | OCI-C5x (clear cell) | 3 | 52 | active
MAP3K8 (mitogen-activated protein kinase kinase kinase 8) | Vehicle | OCI-P5x (serous) | 1 | 81.4 | inactive
MAP3K8 (mitogen-activated protein kinase kinase kinase 8) | Vehicle | OCI-P5x (serous) | 2 | 64.6 | active
MAP3K8 (mitogen-activated protein kinase kinase kinase 8) | Vehicle | OCI-P5x (serous) | 3 | 71.2 | active
